# The other results are listed elsewhere or left out. The main result of the screen is listed elsewhere. These columns were measured beside it and carry no call. The list favours compounds with an active or inconclusive main result. The note in brackets gives the kind of curve behind each potency; many fits are weak.
# Experiment: qHTS Assay for Lipid Storage Modulators in Drosophila S3 Cells;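 as to cell number change: cells counted by Cell Tracker Red CMTPX staining in the red channel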
# Details: BODIPY lipid droplet fluorescence, 18-24 h; for cell number change: measured here: cell count max response, cells fed with added oleic acid
# Summary of the method: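 Laser-scanning cytometry quantifies lipid droplet accumulation (500–530 nm total intensity; droplet/cell object ratio) in oleic acid-fed (400 uM added) Drosophila S3 cells treated with a concentration series. 20 uM Triacsin C defined 100% inhibition.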
# [1] = measured here: lipid fluorescence (Fed channel) AC50, cells fed with added oleic acid
# [2] = measured here: cell number channel AC50, cells fed with added oleic acid
structure (smiles),measurement,setting,value
O=C(/C=C/c1ccc(S(=O)(=O)N2CCOCC2)cc1)N1CCN(c2ccc(F)cc2)CC1,cell number change,,-18.4%
Cc1occc1-c1nnc(SCC(=O)c2ccc(F)cc2)n1Cc1ccco1,cell number change,,-5.32%
same,AC50,[1],"18.4 µM [rising, single point]"
CCOC(=O)c1nnn(-c2nonc2N)c1-c1ccc(OC)cc1,cell number change,,75.3%
same,AC50,[2],"8.2 µM [rising, partial curve]"
same,AC50,[1],"5.17 µM [rising, partial curve]"
Cc1ccc(S(=O)(=O)N(C)c2ccc(C(=O)Nc3cccc(C)n3)cc2)cc1,cell number change,,-15.8%
Cc1ccc(CSc2nnc(-c3ccccc3N)c(=O)[nH]2)cc1,AC50,[2],"6.51 µM [rising, single point]"
COc1ccc(OC)c(C(=O)COC(=O)C2CC3CCCC(C2)C3=O)c1 (configuration not stated),cell number change,,-56.7%
same,AC50,[2],"29.1 µM [falling, single point]"
same,AC50,[1],"2.59 µM [falling, partial curve]"
Cc1cc(C)nc(Nc2n[nH]c(-c3ccccc3C)n2)n1,cell number change,,13.4%
O=C(CSc1nc(Nc2ccccc2)nc(N2CCOCC2)n1)Nc1cccc([N+](=O)[O-])c1,cell number change,,-3.47%
same,AC50,[1],"0.411 µM [rising, partial curve]"
O=C(COc1ccc(Cl)cc1)NCC(=O)N1CCC2(CC1)NCCc1[nH]cnc12,cell number change,,39.6%
same,AC50,[2],"23.1 µM [rising, single point]"
Cc1ccc(-c2nn(CCC(=O)O)cc2CCC(=O)O)cc1,cell number change,,1.84%
same,AC50,[2],"0.0058 µM [falling, full curve, poor fit]"
same,AC50,[1],"1.16 µM [falling, full curve]"
COc1ccc(S(=O)(=O)Nc2ccc3c(c2)OCO3)cc1C,cell number change,,123%
same,AC50,[2],"3.66 µM [rising, partial curve]"
same,AC50,[1],"7.31 µM [rising, partial curve]"
CCOC(=O)c1cc2c(ccn2-c2ccc(F)cc2)n1CC(=O)NC(C)(C)C,cell number change,,-66.7%
same,AC50,[2],"2.31 µM [falling, full curve]"
same,AC50,[1],"1.84 µM [falling, full curve]"
Cc1cc(N)c2cc(NC(=O)/C=C/c3ccccc3Cl)ccc2n1,cell number change,,-47%
same,AC50,[2],"23.1 µM [falling, single point]"
same,AC50,[1],"18.4 µM [falling, single point]"
CCc1ccccc1NC(=O)C1CCN(C(=O)N2CCOc3ccccc32)CC1,cell number change,,35.4%
same,AC50,[2],"1.3 µM [rising, full curve, poor fit]"
same,AC50,[1],"29.1 µM [rising, single point]"
Cc1cc2ncn(C(=O)N3CCOCC3)c2cc1C,cell number change,,-138%
same,AC50,[2],"29.1 µM [falling, partial curve]"
same,AC50,[1],"18.4 µM [falling, partial curve]"
CCCCNC(=O)C1CCN(Cc2ccccn2)CC1,cell number change,,-4.61%
same,AC50,[1],"5.8 µM [rising, single point]"
COc1ccc(CNC(=O)CCNC(=O)c2ccco2)cc1OC,cell number change,,-2.5%
same,AC50,[2],"0.103 µM [falling, full curve, poor fit]"
Cc1csc(SCc2nc3scc(-c4ccccc4)c3c(=O)[nH]2)n1,AC50,[2],"0.517 µM [falling, partial curve]"
COC(=O)c1ccc(NC(=O)COC(=O)C2=NN(c3ccccc3)C(=O)CC2)cc1,cell number change,,-5.23%
same,AC50,[1],"0.461 µM [falling, single point]"
CCOc1ccc(-c2nnc(SCC(=O)O)n2Cc2ccccc2)cc1,cell number change,,-9.85%
C/C(=N\NC(=O)c1cc(C)oc1C)c1ccc(C)c([N+](=O)[O-])c1,cell number change,,-4.81%
same,AC50,[1],"4.61 µM [rising, full curve, poor fit]"
COc1ccc(CCNC(=O)c2cccnc2)cc1,cell number change,,40.6%
same,AC50,[2],"1.46 µM [rising, partial curve]"
same,AC50,[1],"0.0326 µM [rising, full curve, poor fit]"
CCN(c1ccccc1)S(=O)(=O)c1nnc(NC(=O)C(C)(C)C)s1,cell number change,,-12%
CC(C)CCOC(=O)C(C)Sc1n[nH]c(=O)[nH]c1=O (configuration not stated),cell number change,,20.4%
CCCCNC(=O)OC1CCS(=O)(=O)C1 (configuration not stated),cell number change,,-11.8%
same,AC50,[1],"3.66 µM [falling, full curve, poor fit]"
Cn1nccc1C(=O)Nc1ccc2c(c1)OCCO2,cell number change,,20.7%
COc1ccc(/C=C\C(=O)NCc2ccc3[nH]c(C)cc3c2)cc1OC,cell number change,,-56.5%
same,AC50,[2],"13 µM [falling, partial curve]"
same,AC50,[1],"18.4 µM [falling, partial curve]"
Cc1ccc(CN2CCSc3ccc(C(=O)NCCCN4CCN(C)CC4)cc32)cc1,cell number change,,-6.6%
same,AC50,[1],"18.4 µM [rising, partial curve]"
O=C1C2C3C=CC(C2C(=O)N1c1ccccc1O)C1C2C(=O)N(c4ccccc4O)C(=O)C2C31 (configuration not stated),cell number change,,-24.6%
same,AC50,[1],"0.461 µM [falling, full curve]"
COc1cc(OC)c(NC(=O)N2CCOCC2)cc1Cl,cell number change,,3.7%
same,AC50,[1],"29.1 µM [rising, single point]"
N#Cc1nc(COc2ccccc2Cl)oc1NCc1ccc(F)cc1,cell number change,,-22.8%
same,AC50,[1],"29.1 µM [falling, single point]"
CN(C(=O)C1CCOC1)c1nnc(-c2cccnc2)s1 (configuration not stated),AC50,[1],"0.00461 µM [falling, full curve, poor fit]"
COc1cccc(OC)c1C(=O)OCC(=O)NC(=O)NCc1ccccc1,cell number change,,51.6%
same,AC50,[2],"16.4 µM [rising, single point]"
CC(OCC(O)CNCC1COc2ccccc2O1)c1ccc(Cl)cc1 (configuration not stated),cell number change,,21.5%
same,AC50,[1],"23.1 µM [rising, single point]"
COc1ccccc1NC(=S)NC(=O)Cc1ccc(Cl)cc1,cell number change,,16.5%
same,AC50,[1],"29.1 µM [falling, single point]"
Cc1cccc(C)c1NC(=O)/C(C#N)=C/c1ccc(-c2ccc(C(=O)O)cc2)o1,cell number change,,14.3%
CSc1nsc(SCC(=O)N2CCCCC2)n1,cell number change,,2.86%
same,AC50,[2],"3.66 µM [falling, single point]"
same,AC50,[1],"3.66 µM [falling, single point]"
CC(=O)c1c(N2CCN(C)CC2)nc(=S)n(-c2cc(C)ccc2C)c1C,cell number change,,12.3%
CCCOc1ccc(N2C(=O)CC(NCc3cccnc3)C2=O)cc1 (configuration not stated),cell number change,,-5.98%
same,AC50,[1],"0.184 µM [rising, full curve, poor fit]"

# Reformatted bar-delimited: part of the list above
structure (smiles) | measurement | setting | value
Cc1cc2ncn(C(=O)N3CCOCC3)c2cc1C | AC50 | [1] | 18.4 µM [falling, partial curve]
CCCCNC(=O)C1CCN(Cc2ccccn2)CC1 | cell number change |  | -4.61%
same | AC50 | [1] | 5.8 µM [rising, single point]
COc1ccc(CNC(=O)CCNC(=O)c2ccco2)cc1OC | cell number change |  | -2.5%
same | AC50 | [2] | 0.103 µM [falling, full curve, poor fit]
Cc1csc(SCc2nc3scc(-c4ccccc4)c3c(=O)[nH]2)n1 | AC50 | [2] | 0.517 µM [falling, partial curve]
COC(=O)c1ccc(NC(=O)COC(=O)C2=NN(c3ccccc3)C(=O)CC2)cc1 | cell number change |  | -5.23%
same | AC50 | [1] | 0.461 µM [falling, single point]
CCOc1ccc(-c2nnc(SCC(=O)O)n2Cc2ccccc2)cc1 | cell number change |  | -9.85%
C/C(=N\NC(=O)c1cc(C)oc1C)c1ccc(C)c([N+](=O)[O-])c1 | cell number change |  | -4.81%
same | AC50 | [1] | 4.61 µM [rising, full curve, poor fit]
COc1ccc(CCNC(=O)c2cccnc2)cc1 | cell number change |  | 40.6%
same | AC50 | [2] | 1.46 µM [rising, partial curve]
same | AC50 | [1] | 0.0326 µM [rising, full curve, poor fit]
CCN(c1ccccc1)S(=O)(=O)c1nnc(NC(=O)C(C)(C)C)s1 | cell number change |  | -12%

# Source: PubChem BioAssay AID2685 (National Center for Advancing Translational Sciences (NCATS), 2010)
